# Reference: the supplement of paper PMC6411743
# Sequences of proteins named here, by UniProt entry; tags and fusion partners are left off. A change or cut given only in a name is not applied to a line headed by its entry.
# UniProt Q9Y3R5: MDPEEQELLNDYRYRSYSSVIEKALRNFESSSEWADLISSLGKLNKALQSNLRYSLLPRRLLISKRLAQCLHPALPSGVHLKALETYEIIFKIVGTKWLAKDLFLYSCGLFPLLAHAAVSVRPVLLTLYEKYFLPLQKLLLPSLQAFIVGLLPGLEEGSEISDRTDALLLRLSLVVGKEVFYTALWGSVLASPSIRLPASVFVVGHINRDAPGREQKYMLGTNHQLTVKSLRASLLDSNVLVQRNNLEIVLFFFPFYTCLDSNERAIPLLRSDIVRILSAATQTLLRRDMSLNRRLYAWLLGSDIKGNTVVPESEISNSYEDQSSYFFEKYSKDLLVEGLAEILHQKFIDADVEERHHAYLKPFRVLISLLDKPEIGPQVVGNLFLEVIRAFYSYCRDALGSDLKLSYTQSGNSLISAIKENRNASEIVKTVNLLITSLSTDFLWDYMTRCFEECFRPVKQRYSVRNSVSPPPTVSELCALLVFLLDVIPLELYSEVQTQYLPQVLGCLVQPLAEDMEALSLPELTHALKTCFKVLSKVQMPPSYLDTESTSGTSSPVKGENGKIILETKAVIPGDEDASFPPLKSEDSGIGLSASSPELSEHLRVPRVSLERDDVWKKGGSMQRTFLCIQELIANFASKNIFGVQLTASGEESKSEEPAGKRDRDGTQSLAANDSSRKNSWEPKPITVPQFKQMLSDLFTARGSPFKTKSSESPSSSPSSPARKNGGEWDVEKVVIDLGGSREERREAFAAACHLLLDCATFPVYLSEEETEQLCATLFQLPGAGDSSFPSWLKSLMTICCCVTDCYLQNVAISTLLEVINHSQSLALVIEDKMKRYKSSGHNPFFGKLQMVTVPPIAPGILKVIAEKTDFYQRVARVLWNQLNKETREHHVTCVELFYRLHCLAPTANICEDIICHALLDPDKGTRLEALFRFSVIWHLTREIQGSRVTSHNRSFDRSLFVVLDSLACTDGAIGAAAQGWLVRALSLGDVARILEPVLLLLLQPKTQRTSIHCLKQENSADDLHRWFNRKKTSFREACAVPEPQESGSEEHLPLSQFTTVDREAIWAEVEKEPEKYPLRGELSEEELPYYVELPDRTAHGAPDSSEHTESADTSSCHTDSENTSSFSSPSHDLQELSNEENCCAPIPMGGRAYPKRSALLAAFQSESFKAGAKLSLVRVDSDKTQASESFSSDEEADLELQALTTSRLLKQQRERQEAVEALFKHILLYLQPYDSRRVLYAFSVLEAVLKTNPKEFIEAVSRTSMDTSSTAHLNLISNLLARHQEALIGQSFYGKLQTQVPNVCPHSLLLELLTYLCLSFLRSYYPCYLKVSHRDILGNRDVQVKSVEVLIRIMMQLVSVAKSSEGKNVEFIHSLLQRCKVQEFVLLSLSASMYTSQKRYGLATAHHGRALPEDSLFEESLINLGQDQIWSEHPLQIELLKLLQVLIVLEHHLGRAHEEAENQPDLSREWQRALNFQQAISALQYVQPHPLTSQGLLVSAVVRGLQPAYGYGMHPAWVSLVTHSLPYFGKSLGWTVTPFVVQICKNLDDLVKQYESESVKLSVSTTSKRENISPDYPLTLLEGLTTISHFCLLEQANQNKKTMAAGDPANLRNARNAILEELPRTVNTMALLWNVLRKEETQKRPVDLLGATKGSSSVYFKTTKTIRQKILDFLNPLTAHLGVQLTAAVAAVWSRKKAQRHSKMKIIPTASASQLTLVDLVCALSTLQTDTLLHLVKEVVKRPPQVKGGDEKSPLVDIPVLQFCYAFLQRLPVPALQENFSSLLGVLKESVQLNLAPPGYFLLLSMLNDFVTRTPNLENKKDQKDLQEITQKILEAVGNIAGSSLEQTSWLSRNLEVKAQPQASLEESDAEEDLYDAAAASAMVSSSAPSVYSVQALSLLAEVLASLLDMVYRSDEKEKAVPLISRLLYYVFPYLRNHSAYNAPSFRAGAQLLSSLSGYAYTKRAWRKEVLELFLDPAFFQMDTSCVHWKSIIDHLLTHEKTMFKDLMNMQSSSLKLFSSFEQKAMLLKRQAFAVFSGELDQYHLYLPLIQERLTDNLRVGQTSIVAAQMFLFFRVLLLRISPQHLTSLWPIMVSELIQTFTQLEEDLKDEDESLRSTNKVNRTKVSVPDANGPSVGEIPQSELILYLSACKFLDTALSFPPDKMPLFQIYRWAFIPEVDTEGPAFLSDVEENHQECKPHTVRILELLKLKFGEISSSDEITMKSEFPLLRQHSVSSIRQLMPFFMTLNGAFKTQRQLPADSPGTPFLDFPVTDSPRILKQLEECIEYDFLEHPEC
# UniProt Q9UMX0, whole entry: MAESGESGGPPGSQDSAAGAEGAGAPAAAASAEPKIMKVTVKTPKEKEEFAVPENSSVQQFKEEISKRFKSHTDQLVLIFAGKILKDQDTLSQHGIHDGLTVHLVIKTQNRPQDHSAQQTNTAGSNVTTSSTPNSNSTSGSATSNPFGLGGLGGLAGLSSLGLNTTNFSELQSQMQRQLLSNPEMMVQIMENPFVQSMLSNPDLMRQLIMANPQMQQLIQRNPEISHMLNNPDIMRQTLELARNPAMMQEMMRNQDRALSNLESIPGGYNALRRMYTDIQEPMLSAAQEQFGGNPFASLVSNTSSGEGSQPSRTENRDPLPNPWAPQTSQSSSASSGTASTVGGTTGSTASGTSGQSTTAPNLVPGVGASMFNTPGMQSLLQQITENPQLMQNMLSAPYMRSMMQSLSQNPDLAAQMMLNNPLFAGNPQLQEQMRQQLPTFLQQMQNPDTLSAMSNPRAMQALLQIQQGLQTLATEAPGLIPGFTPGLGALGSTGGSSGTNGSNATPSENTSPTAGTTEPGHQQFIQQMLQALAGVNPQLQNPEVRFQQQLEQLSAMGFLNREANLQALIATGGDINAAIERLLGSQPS
# UniProt Q9Y3L3: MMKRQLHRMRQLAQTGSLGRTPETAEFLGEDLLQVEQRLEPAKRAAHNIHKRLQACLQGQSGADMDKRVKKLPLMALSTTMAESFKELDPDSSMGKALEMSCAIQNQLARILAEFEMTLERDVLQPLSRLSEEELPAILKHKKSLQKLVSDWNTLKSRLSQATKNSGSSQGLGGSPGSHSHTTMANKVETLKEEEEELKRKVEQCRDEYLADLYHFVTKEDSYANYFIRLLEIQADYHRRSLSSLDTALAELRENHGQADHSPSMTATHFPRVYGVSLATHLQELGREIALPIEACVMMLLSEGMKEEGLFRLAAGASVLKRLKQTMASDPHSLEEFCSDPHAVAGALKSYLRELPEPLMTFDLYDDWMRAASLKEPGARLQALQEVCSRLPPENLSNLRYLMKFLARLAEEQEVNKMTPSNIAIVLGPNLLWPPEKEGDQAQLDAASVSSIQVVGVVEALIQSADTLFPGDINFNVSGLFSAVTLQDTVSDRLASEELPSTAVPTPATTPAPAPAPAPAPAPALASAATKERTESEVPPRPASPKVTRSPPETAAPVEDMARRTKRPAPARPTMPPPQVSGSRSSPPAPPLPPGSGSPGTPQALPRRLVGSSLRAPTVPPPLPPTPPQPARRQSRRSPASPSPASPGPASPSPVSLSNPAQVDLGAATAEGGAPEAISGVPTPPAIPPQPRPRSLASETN
# UniProt Q9UNF0: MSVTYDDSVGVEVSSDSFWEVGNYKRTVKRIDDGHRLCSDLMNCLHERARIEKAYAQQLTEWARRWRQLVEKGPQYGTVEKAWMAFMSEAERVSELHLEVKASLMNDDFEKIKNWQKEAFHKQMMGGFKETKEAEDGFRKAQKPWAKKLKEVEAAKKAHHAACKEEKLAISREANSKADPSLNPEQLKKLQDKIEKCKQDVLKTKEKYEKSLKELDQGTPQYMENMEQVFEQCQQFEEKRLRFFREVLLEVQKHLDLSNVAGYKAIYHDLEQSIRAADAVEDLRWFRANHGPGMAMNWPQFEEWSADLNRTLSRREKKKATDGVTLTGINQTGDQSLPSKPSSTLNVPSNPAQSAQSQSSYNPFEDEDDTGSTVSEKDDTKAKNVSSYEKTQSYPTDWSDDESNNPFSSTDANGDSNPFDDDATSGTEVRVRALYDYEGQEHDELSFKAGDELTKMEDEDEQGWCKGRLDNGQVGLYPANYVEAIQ
# UniProt Q9Y3C6: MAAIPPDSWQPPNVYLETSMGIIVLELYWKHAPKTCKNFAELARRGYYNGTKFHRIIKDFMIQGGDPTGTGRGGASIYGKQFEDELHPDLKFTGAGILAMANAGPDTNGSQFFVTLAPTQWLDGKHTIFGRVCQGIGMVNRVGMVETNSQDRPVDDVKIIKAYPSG
# UniProt Q9Y692: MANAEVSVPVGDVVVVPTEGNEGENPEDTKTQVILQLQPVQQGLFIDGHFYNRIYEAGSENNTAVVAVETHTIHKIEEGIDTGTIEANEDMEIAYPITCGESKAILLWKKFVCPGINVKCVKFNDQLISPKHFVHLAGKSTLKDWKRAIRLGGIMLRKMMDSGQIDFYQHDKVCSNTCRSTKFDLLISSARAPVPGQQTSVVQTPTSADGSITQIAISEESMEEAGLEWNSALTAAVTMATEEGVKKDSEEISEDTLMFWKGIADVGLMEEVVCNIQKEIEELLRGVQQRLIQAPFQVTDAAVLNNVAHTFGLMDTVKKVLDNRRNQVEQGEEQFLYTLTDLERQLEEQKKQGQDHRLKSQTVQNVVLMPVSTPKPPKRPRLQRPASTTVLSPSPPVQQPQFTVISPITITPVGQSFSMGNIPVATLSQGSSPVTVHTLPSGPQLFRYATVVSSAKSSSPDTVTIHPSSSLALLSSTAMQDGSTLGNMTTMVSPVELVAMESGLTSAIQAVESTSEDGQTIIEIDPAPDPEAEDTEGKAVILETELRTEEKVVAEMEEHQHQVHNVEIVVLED
# UniProt Q9Y3D0: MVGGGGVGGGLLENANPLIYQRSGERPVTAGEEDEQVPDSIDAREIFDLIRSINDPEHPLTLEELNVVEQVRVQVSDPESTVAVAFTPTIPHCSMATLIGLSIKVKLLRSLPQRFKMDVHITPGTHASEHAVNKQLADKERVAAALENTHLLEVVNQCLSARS
# UniProt Q9Y287, whole entry, looked up: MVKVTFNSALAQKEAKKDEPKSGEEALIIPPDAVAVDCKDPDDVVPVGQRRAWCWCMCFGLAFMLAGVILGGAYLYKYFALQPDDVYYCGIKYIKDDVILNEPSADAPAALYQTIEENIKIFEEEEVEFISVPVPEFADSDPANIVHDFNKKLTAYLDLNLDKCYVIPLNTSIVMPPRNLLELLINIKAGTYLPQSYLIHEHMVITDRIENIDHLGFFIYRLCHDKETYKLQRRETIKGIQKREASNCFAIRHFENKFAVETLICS
# UniProt Q9Y237, whole entry: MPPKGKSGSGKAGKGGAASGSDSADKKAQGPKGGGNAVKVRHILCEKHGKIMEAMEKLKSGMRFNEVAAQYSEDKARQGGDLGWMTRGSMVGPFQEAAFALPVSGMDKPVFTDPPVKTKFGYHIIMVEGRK
# UniProt Q9Y617: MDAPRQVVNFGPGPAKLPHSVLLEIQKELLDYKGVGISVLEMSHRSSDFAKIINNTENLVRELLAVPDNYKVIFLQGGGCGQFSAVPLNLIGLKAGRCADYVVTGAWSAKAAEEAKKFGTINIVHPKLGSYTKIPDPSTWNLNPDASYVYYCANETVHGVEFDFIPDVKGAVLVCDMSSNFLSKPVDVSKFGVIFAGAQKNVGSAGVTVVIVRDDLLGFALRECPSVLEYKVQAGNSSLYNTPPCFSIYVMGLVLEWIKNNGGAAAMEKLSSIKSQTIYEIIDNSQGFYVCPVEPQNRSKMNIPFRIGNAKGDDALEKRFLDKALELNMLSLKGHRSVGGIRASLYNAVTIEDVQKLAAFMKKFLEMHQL
# UniProt Q9Y608: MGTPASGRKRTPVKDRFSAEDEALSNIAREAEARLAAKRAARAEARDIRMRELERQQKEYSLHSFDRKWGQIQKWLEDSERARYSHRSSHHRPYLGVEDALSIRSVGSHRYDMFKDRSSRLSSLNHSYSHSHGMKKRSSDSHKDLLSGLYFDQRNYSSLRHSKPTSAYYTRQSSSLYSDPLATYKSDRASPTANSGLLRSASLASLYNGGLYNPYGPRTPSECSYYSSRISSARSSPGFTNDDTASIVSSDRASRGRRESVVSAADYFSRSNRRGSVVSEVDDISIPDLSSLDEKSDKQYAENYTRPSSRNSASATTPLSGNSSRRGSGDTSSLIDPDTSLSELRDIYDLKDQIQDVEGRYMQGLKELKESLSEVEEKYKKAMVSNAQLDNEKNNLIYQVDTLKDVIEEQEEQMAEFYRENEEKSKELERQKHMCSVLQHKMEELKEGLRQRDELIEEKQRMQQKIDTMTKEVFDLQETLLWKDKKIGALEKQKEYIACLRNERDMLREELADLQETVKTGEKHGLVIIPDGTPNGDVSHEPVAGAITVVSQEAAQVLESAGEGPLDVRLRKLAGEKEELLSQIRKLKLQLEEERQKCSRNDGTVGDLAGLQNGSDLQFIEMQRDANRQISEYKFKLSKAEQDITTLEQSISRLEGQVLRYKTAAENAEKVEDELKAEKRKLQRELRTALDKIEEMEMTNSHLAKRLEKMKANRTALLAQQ
# ± gives the standard deviation of the averaged measurements. Some of the results follow.
# Compound: Nc1nc2c(ncn2[C@@H]2O[C@H](COP(=O)(O)OP(=O)(O)OP(=O)(O)O)[C@@H](O)[C@H]2O)c(=O)[nH]1 [guanosine triphosphate]
# Assay: NP40-soluble protein abundance relative to vehicle (solubility fold change) (ratio); higher = more soluble protein in presence of GTP
# Outline: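 Data come from three independent experiments in which Dounce-homogenised Jurkat crude lysate was treated at eight concentrations from 0.1 to 10 mM. Treatment ran 10 min at room temperature and then 3 min at 37 °C, after which 0.8% NP40 and benzonase were added for 60 min at 4 °C before ultracentrifugation. The supernatant underwent TMT labelling and LC-MS/MS, and vsn-normalised intensities were expressed as fold change against the detergent-processed vehicle in each replicate.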
Target,NP40-soluble protein abundance (concentration: 0.1mM),NP40-soluble protein abundance (concentration: 0.5mM),NP40-soluble protein abundance (concentration: 1mM),NP40-soluble protein abundance (concentration: 2mM),NP40-soluble protein abundance (concentration: 4mM),NP40-soluble protein abundance (concentration: 6mM),NP40-soluble protein abundance (concentration: 8mM),NP40-soluble protein abundance (concentration: 10mM)
TRAF3IP3 (UniProt Q9Y228),0.993 ± 0.082,1.01 ± 0.051,1.16 ± 0.15,1.19 ± 0.076,1.2 ± 0.1,1.22 ± 0.059,1.23 ± 0.1,1.44 ± 0.26
SUPT16H (UniProt Q9Y5B9),1.02 ± 0.024,1.01 ± 0.027,0.975 ± 0.016,1 ± 0.054,1.07 ± 0.064,1.14 ± 0.11,1.23 ± 0.13,1.48 ± 0.18
TACC3 (UniProt Q9Y6A5),0.897 ± 0.018,0.905 ± 0.056,0.935 ± 0.042,0.913 ± 0.081,0.887 ± 0.053,0.902 ± 0.077,0.905 ± 0.052,0.953 ± 0.053
PLAA (UniProt Q9Y263),1 ± 0.031,1.02 ± 0.037,0.949 ± 0.03,0.956 ± 0.053,0.925 ± 0.061,0.93 ± 0.054,0.918 ± 0.041,0.88 ± 0.056
UniProt Q9Y3R5 and related entries,1.11 ± 0.17,1.07 ± 0.11,1.1 ± 0.11,1.14 ± 0.17,1.13 ± 0.19,1.08 ± 0.087,1.07 ± 0.07,0.972 ± 0.083
UniProt Q9UMX0 and related entries,0.999 ± 0.07,0.998 ± 0.015,1.09 ± 0.11,1.02 ± 0.032,1.012 ± 0.0015,0.994 ± 0.039,1.02 ± 0.053,1.01 ± 0.039
UniProt Q9Y2A7 and related entries,0.9505 ± 0.0043,1.002 ± 0.0081,0.972 ± 0.055,0.982 ± 0.015,0.991 ± 0.034,0.9641 ± 0.0054,1.02 ± 0.026,0.973 ± 0.011
UniProt Q9Y6I3 and related entries,0.905 ± 0.051,0.92 ± 0.064,0.975 ± 0.013,0.93 ± 0.057,0.879 ± 0.034,0.942 ± 0.042,0.948 ± 0.098,1.04 ± 0.017
UniProt Q9Y3L3 and related entries,0.998 ± 0.025,1 ± 0.045,0.994 ± 0.018,0.988 ± 0.099,0.981 ± 0.04,0.991 ± 0.052,0.958 ± 0.019,1.01 ± 0.034
WASF2 (UniProt Q9Y6W5),0.946 ± 0.08,0.931 ± 0.071,0.998 ± 0.1,0.936 ± 0.12,0.971 ± 0.09,0.96 ± 0.094,1.02 ± 0.1,0.996 ± 0.13
UniProt Q9Y5P4 and related entries,0.996 ± 0.051,1.01 ± 0.039,0.948 ± 0.045,0.946 ± 0.037,0.941 ± 0.048,0.92 ± 0.033,0.941 ± 0.039,0.928 ± 0.022
R4GN35 and related entries (UniProt Q5VZ89),1.01 ± 0.033,0.998 ± 0.044,1.02 ± 0.015,0.995 ± 0.01,0.984 ± 0.025,0.9756 ± 0.006,1.04 ± 0.047,0.998 ± 0.04
ARIH1 (UniProt Q9Y4X5),1.01 ± 0.035,1.02 ± 0.022,0.966 ± 0.045,0.942 ± 0.048,0.945 ± 0.068,0.93 ± 0.074,0.944 ± 0.051,0.924 ± 0.085
UniProt Q9UNF0 and related entries,0.949 ± 0.053,0.958 ± 0.055,0.908 ± 0.027,0.881 ± 0.053,0.869 ± 0.053,0.881 ± 0.043,0.905 ± 0.021,0.91 ± 0.071
PPIL1 (UniProt Q9Y3C6),0.9073 ± 0.0054,0.866 ± 0.044,0.9402 ± 0.0075,0.894 ± 0.029,0.923 ± 0.04,0.917 ± 0.043,0.897 ± 0.075,0.935 ± 0.044
UniProt Q9Y692 and related entries,1.04 ± 0.061,1.08 ± 0.092,1.04 ± 0.058,1.04 ± 0.1,1.06 ± 0.09,1.02 ± 0.1,1.01 ± 0.057,1.03 ± 0.05
UniProt Q9Y3D0,0.836 ± 0.067,0.869 ± 0.033,1.02 ± 0.042,1.04 ± 0.049,0.987 ± 0.043,1.04 ± 0.013,1.04 ± 0.089,1.09 ± 0.17
WBP11 (UniProt Q9Y2W2),1.02 ± 0.025,0.993 ± 0.025,1.06 ± 0.061,1.05 ± 0.077,1.06 ± 0.09,1.1 ± 0.085,1.17 ± 0.064,1.18 ± 0.082
UniProt Q9Y287 and related entries,0.952 ± 0.12,0.956 ± 0.064,0.9524 ± 0.0023,0.872 ± 0.038,0.90108 ± 1.4e-06,0.895 ± 0.011,0.897 ± 0.02,0.911 ± 0.0058
USP24 (UniProt Q9UPU5),1.05 ± 0.078,1.07 ± 0.092,0.969 ± 0.073,0.971 ± 0.12,0.958 ± 0.079,0.943 ± 0.08,0.905 ± 0.05,0.867 ± 0.08
RAD54L2 (UniProt Q9Y4B4),1.04 ± 0.023,1.06 ± 0.036,1.03 ± 0.028,1.05 ± 0.033,1.02 ± 0.043,1.02 ± 0.019,1.01 ± 0.032,0.999 ± 0.051
MRPS18B (UniProt Q9Y676),0.939 ± 0.12,0.991 ± 0.11,1.18 ± 0.3,1.28 ± 0.32,1.29 ± 0.31,1.27 ± 0.3,1.22 ± 0.29,1.29 ± 0.42
UniProt Q9Y237 and related entries,0.844 ± 0.068,0.877 ± 0.036,0.896 ± 0.053,0.893 ± 0.044,0.834 ± 0.07,0.899 ± 0.072,0.878 ± 0.056,0.94 ± 0.017
PSAT1 (UniProt Q9Y617),0.959 ± 0.028,0.966 ± 0.012,0.893 ± 0.028,0.883 ± 0.027,0.858 ± 0.023,0.866 ± 0.024,0.837 ± 0.053,0.822 ± 0.052
UniProt Q9Y608 and related entries,0.942 ± 0.037,0.919 ± 0.12,1.1 ± 0.08,1.08 ± 0.08,1.1 ± 0.049,1.07 ± 0.05,1.11 ± 0.028,1.21 ± 0.079

# As entered above:
# NP40-soluble protein abundance (concentration: 10mM) with UniProt Q9Y3D0 reads 1.09 ± 0.17
# NP40-soluble protein abundance (concentration: 6mM) with UniProt Q9Y6I3 and related entries reads 0.942 ± 0.042
